Publication PMC9870890 (Nature Communications, 2023)
Results are given in words; binding and its absence hold for the method and conditions named. In cells and extracts the contact can be indirect. Some entries that bind do so weakly or less than the wild type.

Protein sequences, listed by entry. Tags and fused reporters are not part of them.
UniProt P08172: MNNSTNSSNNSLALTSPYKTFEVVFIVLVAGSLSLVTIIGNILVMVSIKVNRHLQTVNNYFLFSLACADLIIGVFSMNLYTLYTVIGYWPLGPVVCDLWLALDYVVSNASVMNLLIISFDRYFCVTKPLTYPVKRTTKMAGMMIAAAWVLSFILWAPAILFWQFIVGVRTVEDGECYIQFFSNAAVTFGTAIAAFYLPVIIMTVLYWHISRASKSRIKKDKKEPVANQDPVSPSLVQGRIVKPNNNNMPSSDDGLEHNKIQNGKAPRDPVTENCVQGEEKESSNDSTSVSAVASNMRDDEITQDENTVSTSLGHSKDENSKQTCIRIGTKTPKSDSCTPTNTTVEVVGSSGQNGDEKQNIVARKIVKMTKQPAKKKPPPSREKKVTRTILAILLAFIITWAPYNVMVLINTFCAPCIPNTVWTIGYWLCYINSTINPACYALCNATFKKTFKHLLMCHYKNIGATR
UniProt P32121: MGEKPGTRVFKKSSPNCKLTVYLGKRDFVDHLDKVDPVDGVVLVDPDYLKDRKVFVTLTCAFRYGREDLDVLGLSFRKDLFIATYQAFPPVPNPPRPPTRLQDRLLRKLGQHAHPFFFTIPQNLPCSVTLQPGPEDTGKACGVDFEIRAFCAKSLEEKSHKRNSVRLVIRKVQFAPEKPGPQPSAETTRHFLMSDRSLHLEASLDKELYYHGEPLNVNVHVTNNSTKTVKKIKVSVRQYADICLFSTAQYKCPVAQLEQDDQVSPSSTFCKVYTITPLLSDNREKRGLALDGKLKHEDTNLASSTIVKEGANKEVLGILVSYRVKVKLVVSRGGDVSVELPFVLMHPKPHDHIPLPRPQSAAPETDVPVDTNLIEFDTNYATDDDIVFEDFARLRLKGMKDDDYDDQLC

Biological target: flag-tagged M2 receptor carrying the PKA fragment for enzyme complementation (human) (UniProt P08172)
Assay: split reporter; PathHunter β-galactosidase fragment complementation in HEK293T cells; LY2119620 preincubated 30 min, then ACh or Ixo for 90 min; chemoluminescence

- binding: binds
Substance: β-arrestin-2 (from UniProt P32121 1-409)
